# Reference: publication PMC6164518 (Marine Drugs, 2018)
# Protein sequences, listed by entry. Tags and fused reporters are not part of them. Residues count along the entry.
# UniProt P05067, 672-713 limits assumed: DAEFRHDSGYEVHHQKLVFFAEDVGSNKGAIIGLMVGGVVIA
# Target: T1, Aβ1–42 (Homo sapiens, UniProt P05067)
# T1 construct: pre-treated Aβ1–42 (GL Biochem Ltd., Shanghai, China) was dissolved in DMSO; purchased GL Biochem Ltd., Shanghai, China
# Assay: Inhibition of self-induced Aβ1–42 aggregation (ThT fluorescence)
# Type: biochemical
# Details: Aβ1–42 2.5 µM, compound 10 µM; mean ± SD of three experiments
# Description: In order to investigate the inhibition of compounds on Aβ1–42 self-aggregation, a ThT-based fluorometric assay was performed. 1,1,1,3,3,3-hexafluoro-2-propanol (HFIP) pre-treated Aβ1–42 (GL Biochem Ltd., Shanghai, China) was dissolved in DMSO to make a 200 µM stock solution. The stock solution was centrifuged at the speed of 13,500 rpm for 10 min. The above supernatant was used for experiments. The tested compounds were dissolved in DMSO at concentrations of 0.8 mM. A screening assay for the tested compounds to inhibit A aggregation was performed by measuring ThT fluorescence emission. Compounds (2 µL) and 2 µL of 200 µM Aβ1–42 were added into 76 µL of phosphate-buffered saline (PBS at pH 7.4) in a 96-well plate. After incubation for 24 h at room temperature, 80 µL of 5 µM of ThT solution (in 50 mM of glycine-NaOH at pH 8.5) was added to the reaction solution. Fluorescence emission was measured at 490 nm with an excitation wavelength of 450 nm on a Tecan Spark multimode microplate reader. […] The fluorescence intensities were compared, and the % inhibition was calculated by the following equation: 100 − [(Fi − Fb)/(Fo − Fb) × 100], where Fi, Fo and Fb are the fluorescence intensities obtained for Aβ aggregation in the presence of inhibitors Aβ1–42 and ThT; in the presence of Aβ1–42 and THT but no inhibitors; and the blanks containing ThT only.
smiles,measurement,value
COc1cc2c(cc1OC)C(=O)C(CC1CCN(Cc3ccccc3)CC1)C2 (stereo not shown) [Donepezil],Inhibition of Aβ Aggregation (%) Self-Induced,17.95 ± 0.77%
